According to the supplement of paper PMC6418307:
Counter-ions that a name gives are not always drawn. Single values of this set are uncertain.

Test system: primary mouse cortical neurons
Assay: cell health score (luciferase spike-in reads / total reads per well) (fraction); higher = fewer cellular reads, worse cell health / toxicity
Settings: treatment time 24 h
[1] = 0.01 µM, sex of neuron culture: Female
[2] = 0.01 µM, sex of neuron culture: Male
[3] = 0.1 µM, sex of neuron culture: Female
[4] = 0.1 µM, sex of neuron culture: Male
[5] = 1 µM, sex of neuron culture: Female
[6] = 1 µM, sex of neuron culture: Male
[7] = 10 µM, sex of neuron culture: Female
[8] = 10 µM, sex of neuron culture: Male

Compound	cell health score [1]	cell health score [2]	cell health score [3]	cell health score [4]	cell health score [5]	cell health score [6]	cell health score [7]	cell health score [8]
COc1cccc(C(=O)NN(C(=O)c2cc(C)cc(C)c2)C(C)(C)C)c1C [Methoxyfenozide]	0.000438	0.000695	0.000943	0.000946	0.000707	0.00059	0.00143	0.00047
CN=C=S [Methyl isothiocyanate]	0.000528	0.000609	0.00222	0.00069	0.000851	0.000975	0.000702	0.000588
COP(=S)(OC)Oc1ccc([N+](=O)[O-])cc1 [Methyl parathion]	0.000693	0.000898	0.000886	0.000752	0.000687	0.000589	0.000948	0.000531
N#CSCSC#N [Methylene bis(thiocyanate)]	0.000611	0.00107	0.000695	0.000719	0.000944	0.000463	0.000917	0.000471
CCc1cccc(C)c1N(C(=O)CCl)C(C)COC (configuration not stated) [Metolachlor]	0.000617	0.000765	0.000751	0.000873	0.00115	0.000537	0.00131	0.000893
CSc1nnc(C(C)(C)C)c(=O)n1N [Metribuzin]	0.000479	0.000744	0.00142	0.00124	0.000911	0.000581	0.000984	0.000618
COC(=O)C=C(C)OP(=O)(OC)OC [Mevinphos]	0.000415	0.000604	0.000582	0.00074	0.00076	0.00066	0.00109	0.00235
CCSC(=O)N1CCCCCC1 [Molinate]	0.000578	0.000574	0.00126	0.000703	0.00118	0.000547	0.000952	0.000424
CCCCOC(=O)c1ccccc1C(=O)O [Monobutyl phthalate]	0.000474	0.000786	0.000546	0.000863	0.000695	0.000432	0.000756	0.00068
CNC(=O)/C=C(\C)OP(=O)(OC)OC [Monocrotophos]	0.000538	0.000795	0.000895	0.000929	0.00139	0.000593	0.00132	0.000579
COC(=O)c1ccccc1C(=O)O [Monomethyl phthalate]	0.000456	0.000698	0.000689	0.000727	0.000704	0.000675	0.000836	0.000452
COc1c(N2C[C@@H]3CCCN[C@@H]3C2)c(F)cc2c(=O)c(C(=O)O)cn(C3CC3)c12 [Moxifloxacin]	0.000443	0.000859	0.000635	0.000707	0.000968	0.000806	0.00114	0.000591
CCCCC(C#N)(Cn1cncn1)c1ccc(Cl)cc1 (configuration not stated) [Myclobutanil]	0.000579	0.000651	0.000928	0.000636	0.000602	0.000508	0.000528	0.00174
CO/C(=C/C(N)=O)[C@H](C)[C@H](/C=C/c1csc(-c2csc([C@@H](C)/C=C/C=C/C(C)C)n2)n1)OC [Myxothiazol]	0.00229	0.000936	0.00197	0.00161	0.00131	0.000947	0.00258	0.00305
OC[C@H]1O[C@@H](n2cnc3c(NC4CCCC4)ncnc32)[C@H](O)[C@@H]1O [N6-Cyclopentyl adenosine]	0.000527	0.000739	0.00139	0.000773	0.000759	0.000973	0.00107	0.00109
CC(=O)N=C1C=CC(=O)C=C1 [NAPQI]	0.000529	0.000734	0.000819	0.000773	0.0012	0.00074	0.000995	0.000816
COP(=O)(OC)OC(Br)C(Cl)(Cl)Br (configuration not stated) [Naled]	0.000448	0.000712	0.000827	0.00088	0.00114	0.000686	0.00119	0.000587
CCN(CC)C(=O)C(C)Oc1cccc2ccccc12 (configuration not stated) [Napropamide]	0.000489	0.00356	0.00095	0.000636	0.00104	0.000626	0.000672	0.000576
O=C(Nc1ccc([N+](=O)[O-])cc1Cl)c1cc(Cl)ccc1O [Niclosamide]	0.000548	0.00118	0.000764	0.0014	0.000657	0.00103	0.00302	0.0086
Clc1cccc(C(Cl)(Cl)Cl)n1 [Nitrapyrin]	0.000618	0.0012	0.00101	0.00112	0.000733	0.000567	0.00284	0.000563
CNc1cnn(-c2cccc(C(F)(F)F)c2)c(=O)c1Cl [Norflurazon]	0.000334	0.000839	0.001	0.000771	0.00101	0.000643	0.00146	0.000799
O=C(NC(=O)c1c(F)cccc1F)Nc1ccc(OC(F)(F)C(F)OC(F)(F)F)c(Cl)c1 (configuration not stated) [Novaluron]	0.000745	0.000924	0.000911	0.000959	0.000737	0.00136	0.00109	0.000785
CCCN(CCC)c1c([N+](=O)[O-])cc(S(N)(=O)=O)cc1[N+](=O)[O-] [Oryzalin]	0.000524	0.000571	0.000841	0.000751	0.000731	0.000464	0.000933	0.000546
CC(C)Oc1cc(-n2nc(C(C)(C)C)oc2=O)c(Cl)cc1Cl [Oxadiazon]	0.000702	0.000849	0.000789	0.00108	0.000887	0.000756	0.0013	0.000492
CNC(=O)O/N=C(\SC)C(=O)N(C)C [Oxamyl]	0.000373	0.000769	0.000681	0.000867	0.00085	0.000749	0.00116	0.000589
CCOc1cc(Oc2ccc(C(F)(F)F)cc2Cl)ccc1[N+](=O)[O-] [Oxyfluorfen]	0.000551	0.00145	0.00125	0.00107	0.000962	0.000528	0.0013	0.000604
CN(C)[C@@H]1C(O)=C(C(N)=O)C(=O)[C@@]2(O)C(O)=C3C(=O)c4c(O)cccc4[C@@](C)(O)[C@H]3[C@H](O)[C@@H]12 [Oxytetracycline dihydrate]	0.000515	0.00073	0.00111	0.00111	0.000695	0.000484	0.000843	0.000507

Compound	cell health score [1]	cell health score [2]	cell health score [3]	cell health score [4]	cell health score [5]	cell health score [6]	cell health score [7]	cell health score [8]
COc1cccc(NCC(F)Cn2c3ccc(Br)cc3c3cc(Br)ccc32)c1 (configuration not stated) [P7C3-A20]	0.000497	0.000837	0.000787	0.00111	0.000659	0.000409	0.000931	0.00256
C[n+]1ccc(-c2cc[n+](C)cc2)cc1 [Paraquat]	0.000609	0.0007	0.000639	0.000854	0.000448	0.000635	0.00103	0.000707
CCOP(=S)(OCC)Oc1ccc([N+](=O)[O-])cc1 [Parathion]	0.000878	0.000619	0.000815	0.000755	0.000624	0.000588	0.00155	0.000625
CCC(CC)Nc1c([N+](=O)[O-])cc(C)c(C)c1[N+](=O)[O-] [Pendimethalin]	0.000656	0.000816	0.000919	0.00104	0.000564	0.000827	0.00134	0.000668
COc1cnc(OC)n2nc(NS(=O)(=O)c3c(OCC(F)F)cccc3C(F)(F)F)nc12 [Penoxsulam]	0.000472	0.000689	0.000716	0.001	0.000644	0.000764	0.000764	0.000708
O=[N+]([O-])c1c(Cl)c(Cl)c(Cl)c(Cl)c1Cl [Pentachloronitrobenzene]	0.000514	0.000787	0.000945	0.000828	0.000953	0.000882	0.000911	0.000939
CC1(C)C(C=C(Cl)Cl)C1C(=O)OCc1cccc(Oc2ccccc2)c1 (configuration not stated) [Permethrin]	0.000572	0.000836	0.000811	0.00095	0.000791	0.000912	0.000966	0.000461
CCOP(=S)(OCC)SCn1c(=O)oc2cc(Cl)ccc21 [Phosalone]	0.000664	0.000791	0.000682	0.000814	0.000976	0.000715	0.00109	0.00062
Nc1c(Cl)c(Cl)nc(C(=O)O)c1Cl [Picloram]	0.000456	0.000585	0.00057	0.000825	0.000753	0.000786	0.000351	0.000669
CCCCOCCOCCOCc1cc2c(cc1CCC)OCO2 [Piperonyl butoxide]	0.000564	0.000773	0.00173	0.00062	0.000745	0.000701	0.000839	0.00067
Cc1nc(N(C)C)nc(OC(=O)N(C)C)c1C [Pirimicarb]	0.000722	0.000907	0.000814	0.00112	0.000648	0.00074	0.00117	0.000582
CCN(CC)c1nc(C)cc(OP(=S)(OC)OC)n1 [Pirimiphos-methyl]	0.000589	0.000718	0.000924	0.000918	0.00103	0.000569	0.00156	0.00065
C#CCC1=C(C)C(OC(=O)C2C(C=C(C)C)C2(C)C)CC1=O (configuration not stated) [Prallethrin]	0.000653	0.000826	0.000861	0.000947	0.000835	0.00066	0.00105	0.000517
CCCN(CCOc1c(Cl)cc(Cl)cc1Cl)C(=O)n1ccnc1 [Prochloraz]	0.000473	0.000685	0.000631	0.000631	0.000825	0.00108	0.000731	0.000661
CCCN(CCC)c1c([N+](=O)[O-])cc(C(F)(F)F)c(N)c1[N+](=O)[O-] [Prodiamine]	0.000718	0.00107	0.000774	0.00106	0.000801	0.000772	0.000868	0.000514
CCCSP(=O)(OCC)Oc1ccc(Br)cc1Cl (configuration not stated) [Profenofos]	0.000668	0.00118	0.00103	0.001	0.000946	0.000774	0.00184	0.000724
COc1nc(NC(C)C)nc(NC(C)C)n1 [Prometon]	0.000735	0.000978	0.000563	0.000759	0.000675	0.000515	0.00102	0.000518
CSc1nc(NC(C)C)nc(NC(C)C)n1 [Prometryn]	0.000671	0.000702	0.000788	0.00104	0.000644	0.000602	0.000699	0.000468
CCCOC(=O)NCCCN(C)C [Propamocarb hydrochloride]	0.000515	0.000773	0.000784	0.000751	0.00118	0.000704	0.00161	0.000808
CCC(=O)Nc1ccc(Cl)c(Cl)c1 [Propanil]	0.000577	0.0011	0.00105	0.001	0.000961	0.000549	0.00133	0.000987
C#CCOS(=O)OC1CCCCC1Oc1ccc(C(C)(C)C)cc1 (configuration not stated) [Propargite]	0.000369	0.000909	0.00132	0.00148	0.00101	0.00151	0.00744	0.00533
CC(C)Nc1nc(Cl)nc(NC(C)C)n1 [Propazine]	0.000484	0.000902	0.000732	0.000822	0.000883	0.000474	0.000993	0.000662
CCNP(=S)(OC)O/C(C)=C/C(=O)OC(C)C (configuration not stated) [Propetamphos]	0.000484	0.000853	0.000645	0.000891	0.000909	0.000487	0.000819	0.000523
CCCC1COC(Cn2cncn2)(c2ccc(Cl)cc2Cl)O1 (configuration not stated) [Propiconazole]	0.000363	0.000501	0.00123	0.000775	0.000957	0.000585	0.000754	0.000739
CNC(=O)Oc1ccccc1OC(C)C [Propoxur]	0.000511	0.000672	0.00128	0.000769	0.000991	0.000989	0.00091	0.000861
CCCOc1nn(C(=O)NS(=O)(=O)c2ccccc2C(=O)OC)c(=O)n1C [Propoxycarbazone-sodium]	0.000368	0.00272	0.000682	0.000742	0.000748	0.00048	0.000782	0.00066
C#CC(C)(C)NC(=O)c1cc(Cl)cc(Cl)c1 [Propyzamide]	0.000524	0.000989	0.000862	0.00069	0.000687	0.000634	0.000838	0.000419

One compound at a time (already shown):
CCCN(CCC)c1c([N+](=O)[O-])cc(C(F)(F)F)c(N)c1[N+](=O)[O-] [Prodiamine] as listed: cell health score [1]: 0.000718; cell health score [2]: 0.00107; cell health score [3]: 0.000774; cell health score [4]: 0.00106; cell health score [5]: 0.000801; cell health score [6]: 0.000772; cell health score [7]: 0.000868; cell health score [8]: 0.000514
C[n+]1ccc(-c2cc[n+](C)cc2)cc1 [Paraquat] as listed: cell health score [1]: 0.000609; cell health score [2]: 0.0007; cell health score [3]: 0.000639; cell health score [4]: 0.000854; cell health score [5]: 0.000448; cell health score [6]: 0.000635; cell health score [7]: 0.00103; cell health score [8]: 0.000707
